# The campaign covered roughly 1,500 compounds. About 460 (31%) were called active. Another 1% or so got no clear call; they are omitted.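 The calls were made as follows: active = curve reaches 40% activation over neutral controls at an AC40 no higher than the top valid tested concentration; inconclusive = no clear call, values can overlap the other calls; inactive = signal moving opposite to the expected increase, and the rest.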 The list shows a part of the results, in another mix than the full data. Results with a measured potency or affinity are listed apart.
# Assay: GLuc-reported insulin release enhancers, glucose-stimulated beta cells – cell-based, INS-1E, Gaussia luciferase, luminescence, cherry-pick, set 2, dose response (AID 977607);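 also: 0% = median of the plate neutral control wells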
# Conditions: INS-1E GLuc insulin secretion reporter, 2-3 h, at 0.005 µM, stronger effect = higher value, 100% = signal doubled over neutral wells
row,SMILES,max activation
1,c1ccc(N2[C@@H]3CC[C@H]2c2ccncc2C3)cc1,inactive: -18.6%

# Source: PubChem BioAssay AID977607 (Broad Institute, 2014)
